In paper PMC3843698:
Results are given in words; binding and its absence hold for the method and conditions named. In cells and extracts the contact can be indirect. Some results given as binding are weak or reduced against the parent protein; the word gives no strength.

Protein sequences, listed by entry. Tags and fused reporters are not part of them.
UniProt I6Y3I6: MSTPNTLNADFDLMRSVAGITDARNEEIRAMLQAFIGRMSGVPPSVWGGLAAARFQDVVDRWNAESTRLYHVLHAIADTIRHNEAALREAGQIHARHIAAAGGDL
UniProt P9WNH7: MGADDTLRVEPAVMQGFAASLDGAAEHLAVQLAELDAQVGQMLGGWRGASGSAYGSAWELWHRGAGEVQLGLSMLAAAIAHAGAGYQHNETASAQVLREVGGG
UniProt I6YC53: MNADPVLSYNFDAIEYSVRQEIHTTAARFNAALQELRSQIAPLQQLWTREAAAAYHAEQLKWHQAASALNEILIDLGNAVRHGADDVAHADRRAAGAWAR
UniProt P9WNH9: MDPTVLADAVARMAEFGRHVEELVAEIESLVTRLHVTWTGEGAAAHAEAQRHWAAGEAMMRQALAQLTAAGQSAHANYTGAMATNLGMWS

How the values were obtained:
[1] = target: EsxUmt with C-terminal His6 tag (expressed from pMAPLe3) (M. tuberculosis H37Rv) (UniProt I6Y3I6); test: pull-down; […]; buffer 1: 50 mM HEPES, pH 7.5 or pH 7.8, 300 mM NaCl
[2] = target: EsxUmt with C-terminal His6 tag (expressed from pMAPLe3) (M. tuberculosis H37Rv) (UniProt I6Y3I6); test: pull-down; […]; buffer 3: 50 mM HEPES, pH 7.5, 1 M NaCl
[3] = target: EsxUmt with C-terminal His6 tag (expressed from pMAPLe3) (M. tuberculosis H37Rv) (UniProt I6Y3I6); test: pull-down; […]; buffer 4: 50 mM HEPES, […]
[4] = target: EsxFmt with C-terminal His6 tag (expressed from pMAPLe3) (M. tuberculosis H37Rv) (UniProt P9WNH7); test: pull-down; […]; buffer 1: 50 mM HEPES, pH 7.5 or pH 7.8, 300 mM NaCl
[5] = target: EsxFmt with C-terminal His6 tag (expressed from pMAPLe3) (M. tuberculosis H37Rv) (UniProt P9WNH7); test: pull-down; […]; buffer 3: 50 mM HEPES, pH 7.5, 1 M NaCl
[6] = target: EsxFmt with C-terminal His6 tag (expressed from pMAPLe3) (M. tuberculosis H37Rv) (UniProt P9WNH7); test: pull-down; […]; buffer 4: 50 mM HEPES, […]

Measured: binding

EsxTmt after intracellular cleavage of MBP (expressed from pMAPLe3) (from UniProt I6YC53 1-100)
binds: [1] | [2] | [3]

EsxEmt after intracellular cleavage of MBP (expressed from pMAPLe3) (from UniProt P9WNH9 1-90)
binds: [4] | [5] | [6]
